Assay results: publication PMC10999177
For at least one entry, the source does not settle the construct or the ends of the probe.

Amino acid sequences for entries named in this document (tags omitted). Residues count along the entry.
UniProt Q9UKV8, whole entry: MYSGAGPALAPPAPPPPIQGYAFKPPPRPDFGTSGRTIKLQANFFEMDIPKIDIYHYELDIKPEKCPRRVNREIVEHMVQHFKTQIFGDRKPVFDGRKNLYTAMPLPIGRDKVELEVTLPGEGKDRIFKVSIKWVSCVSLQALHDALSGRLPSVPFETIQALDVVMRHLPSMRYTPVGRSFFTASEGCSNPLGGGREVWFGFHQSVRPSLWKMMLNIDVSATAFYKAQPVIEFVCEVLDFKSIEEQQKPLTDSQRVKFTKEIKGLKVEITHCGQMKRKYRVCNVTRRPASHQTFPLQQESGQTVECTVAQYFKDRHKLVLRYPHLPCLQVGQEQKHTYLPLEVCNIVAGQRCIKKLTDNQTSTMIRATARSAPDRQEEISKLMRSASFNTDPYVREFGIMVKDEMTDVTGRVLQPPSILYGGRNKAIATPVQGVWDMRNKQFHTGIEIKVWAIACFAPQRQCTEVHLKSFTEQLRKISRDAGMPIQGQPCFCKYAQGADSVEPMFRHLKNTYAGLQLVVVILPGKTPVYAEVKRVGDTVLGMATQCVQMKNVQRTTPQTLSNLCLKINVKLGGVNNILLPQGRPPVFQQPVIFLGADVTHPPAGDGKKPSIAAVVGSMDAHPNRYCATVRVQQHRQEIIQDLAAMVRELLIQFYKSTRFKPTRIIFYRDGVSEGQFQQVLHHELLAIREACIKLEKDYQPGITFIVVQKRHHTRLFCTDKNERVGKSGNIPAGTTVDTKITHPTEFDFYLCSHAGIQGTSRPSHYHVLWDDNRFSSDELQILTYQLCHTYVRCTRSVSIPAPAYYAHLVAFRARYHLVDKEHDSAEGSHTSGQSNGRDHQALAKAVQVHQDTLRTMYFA
UniProt Q9UKV8, 224-350: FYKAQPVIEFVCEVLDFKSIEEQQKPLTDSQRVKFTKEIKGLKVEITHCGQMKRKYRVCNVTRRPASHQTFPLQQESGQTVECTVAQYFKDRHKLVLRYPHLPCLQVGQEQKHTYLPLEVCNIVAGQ

Assays:
hAGO2 (Homo sapiens) = hAGO2 (Homo sapiens) (UniProt Q9UKV8); experiment: EMSA; conditions: 20 nM probe, on ice 30 min, 5% native PAGE, 0.5x TBE, 100 V 50 min, recombinant protein, residues 1-859
[1] = target: AGO2 PAZ domain (Homo sapiens) (UniProt Q9UKV8); experiment: EMSA; conditions: stronger than to miR-1246; 20 nM probe, on ice 30 min; 5% native PAGE, 0.5x TBE, 100 V 50 min; recombinant protein; residues 224-350; DNA:RNA hybrid

Sequence	Kd (hAGO2 (Homo sapiens); DNA:RNA hybrid)	binding result [1]	Kd (hAGO2 (Homo sapiens))
AAUGGAUUUUUGGAGCAGG / CCTGCTCCAAAAATCCATT [miR-1246/ssDNA hybrid]	24.7 nM	binds	
AAUGGAUUUUUGGAGCAGG / ATGACGCTGCCGAATTCTACCGCCCTGCTCCAAAAATCCATTTTTAGGTTCACCTCGTCCCTGGC / GCCAGGGACGAGGTGAACCTGGCCCGTTCGGGCGTAGTTCATTATGTAGAATTCGGCAGCGTCAT [R-loop analog containing miR-1246]			13 nM
